According to PubChem BioAssay AID651640 (Broad Institute, 2012):
“And” between values parts separate entries of the source, which are not always exact repeats. Equal values may be shown once. Hit rate of the full screen: of about 350,000 compounds, about 6,000 (1.7%) were called active. The inconclusive results got no clear call from the source; some entries with a clear call stand among them for comparison. Cut-off read from the data, not from the text of the source: active = CPE inhibition above about 20% (passing the limit was not always enough); inconclusive = no clear call, values can overlap the other calls; tested in BHK-21 cells.

Experiment: protection of cells from dengue 2 killing – plate reader, single concentration, primary screen (AID 651640);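 note: 0% = median of neutral control wells and 100% = median of positive control wells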
Settings: DENV2-infected cells, cytopathic effect rescue, at 9.99 µM, hits give high values

Row | Structure (SMILES) | CPE inhibition
1 | C[C@@H]1CN([C@@H](C)CO)C(=O)c2cc(-c3cccnc3)cnc2O[C@H]1CN(C)S(C)(=O)=O | inconclusive: 19%
2 | CCOc1ccc(Cl)cc1Nc1nc(NCCO)nc(N2CCCC2)n1 | inconclusive: 28.3%
3 | O=C(C1CC1)N1C[C@H]2[C@@H](c3ccccc31)[C@H](CO)N2C(=O)Cc1ccccn1 | active: 62.9%
4 | CC=Cc1ccc2n(c1=O)C[C@@H]1[C@@H](CO)[C@H](C(=O)NCc3ccccn3)[C@H]2N1CCC (mixture of isomers) | inactive: -4.34%
5 | CCCNC(=O)Nc1ccc2c(c1)C(=O)N(C)C[C@H](OC)[C@H](C)CN(C)[C@@H](C)CO2 | active: 101%
6 | C[C@@H]1CCCCO[C@@H](CN(C)S(C)(=O)=O)[C@@H](C)CN([C@H](C)CO)C(=O)c2cc(NC(=O)Nc3ccc(F)cc3)ccc2O1 | inactive: -6.29%
7 | Cc1ccccc1OCC(=O)OCC(=O)NCc1ccco1 | inconclusive: 44.5%
8 | COCC(=O)N(C)C[C@H]1Oc2cc(C3=CCCC3)ccc2S(=O)(=O)N([C@@H](C)CO)C[C@H]1C | inconclusive: 44.3%
9 | CN(C)CCCNC(=O)C[C@@H]1CC[C@@H]2[C@@H](COc3ccc(NC(=O)c4cccc(F)c4)cc3C(=O)N2C)O1 | inactive: 4.31%
10 | Cc1ccc(F)cc1S(=O)(=O)N[C@@H]1CCN(Cc2ccc(OC(C)C)cc2)C1 | inconclusive: 20.7%
11 | C[C@@H]1CN([C@H](C)CO)C(=O)c2cc(NC(=O)Nc3cccc4ccccc34)ccc2O[C@H]1CN(C)S(=O)(=O)c1cn(C)cn1 | inconclusive: 34.7%
12 | O=C(CN(C(=O)c1csnn1)c1ccc2c(c1)OCCO2)NCc1ccc(F)cc1 | inconclusive: 23.2%
13 | CO[C@H](CN(C)C(=O)c1ccc2c(c1)OCO2)[C@@H](C)CN([C@H](C)CO)S(=O)(=O)c1ccccc1 | inactive: -3.26%
14 | O=[N+]([O-])c1cccc(/C=C/c2ccc3cccc(O)c3n2)c1 | inconclusive: 25.1%
15 | O=C(CSc1nnc(N2CCCC2)n1-c1ccccc1Cl)N1CCN(c2ccccn2)CC1 | inconclusive: 33%
16 | COc1cc(CNc2nccn3ccnc23)cc(OC)c1 | active: 36.3%
17 | Cc1ccccc1N1CCN(C2CCCN(C(=O)CCC(F)(F)F)C2)CC1 (stereo unspecified) | inconclusive: 33%
18 | COc1ccc(NC(=O)Nc2ccc3c(c2)CC(=O)N([C@@H](C)CO)C[C@@H](C)[C@@H](CN(C)Cc2ccc(C(F)(F)F)cc2)O3)cc1 | inactive: -24.3%
19 | C[C@@H]1CN([C@H](C)CO)C(=O)Cc2cc(NC(=O)C3CC3)ccc2O[C@@H]1CN(C)Cc1ccccc1 | inconclusive: 25.2%
20 | CC(C)CC#Cc1ccc2c(c1)O[C@@H](CN(C)C(=O)C1CCOCC1)[C@@H](C)CN([C@H](C)CO)S2(=O)=O | inconclusive: -1.71%
21 | CN(C)CCn1c2c(c(SCC(=O)Nc3cccc(C(F)(F)F)c3)nc1=O)CCCC2 | inconclusive: 28.7%
22 | C[C@H]1CCCCO[C@H](CN(C)S(=O)(=O)c2ccccc2)[C@@H](C)CN([C@@H](C)CO)C(=O)c2cc(NC(=O)C3CCCCC3)ccc2O1 | inconclusive: 26.2%

Row | Structure (SMILES) | CPE inhibition
23 | CC=Cc1ccc2n(c1=O)C[C@@H]1[C@@H](CO)[C@H](C(=O)NCC)[C@H]2N1Cc1ccccc1 (mixture of isomers) | inconclusive: 34.4%
24 | CCCCC[C@@H]1CCCCC[C@H](O)C[C@@H](O)[C@@H](O)/C=C/C(=O)O1 | inconclusive: 38.2%
25 | Cc1noc(C)c1S(=O)(=O)N(C)C[C@@H]1OCCCC[C@H](C)Oc2ccc(NC(=O)NC(C)C)cc2C(=O)N([C@H](C)CO)C[C@H]1C | active: 86.4%
26 | O=C(NC[C@H]1CC[C@H]2[C@H](CN2C(=O)C2CCOCC2)O1)c1cccnc1 | inconclusive: 25.7%
27 | C/C=C/c1cnc2c(c1)C(=O)N([C@@H](C)CO)C[C@H](C)[C@H](CN(C)C(=O)Nc1ccccc1F)O2 | inconclusive: 26.9%
28 | COc1cccc(CNC(=O)c2cc3c(c(-c4cccc(-c5cccc(C#N)c5)c4)n2)[C@H](CCO)N(S(=O)C(C)(C)C)C3)c1 (stereo partly specified) | inactive: 0.909%
29 | CCNC(=O)C1CCCN(C(=O)c2cccs2)CC1 (stereo unspecified) | inconclusive: 27%
30 | Cc1nn(Cc2c(F)c(F)c(F)c(F)c2F)c(C)c1NC(=O)c1nn(C)cc1Br | inactive: -0.609%
31 | COc1ccc(Nc2nc(N)nc(CCl)n2)cc1 | inconclusive: 44.7%
32 | O=C(C[C@H]1CC[C@@H]2[C@H](COC[C@@H](O)CN2C(=O)c2cccnc2)O1)Nc1ccc(-c2ccccc2)cc1 | inconclusive: 27.2%
33 | COC(=O)N(C)C[C@H]1OCc2ccccc2-c2c(n(C)c3ccccc23)C(=O)N([C@@H](C)CO)C[C@@H]1C | inactive: 2.6%
34 | O=C(C[C@H]1CC[C@H]2[C@@H](COC[C@@H](O)CN2C(=O)c2ccc(F)cc2)O1)NCCCN1CCOCC1 | active: 20.2%
35 | Cc1noc(C)c1NC(=O)Nc1ccc2c(c1)C(=O)N([C@@H](C)CO)C[C@@H](C)[C@H](CN(C)S(=O)(=O)c1ccc(F)cc1)OCCCC[C@@H](C)O2 | inconclusive: 37%
36 | C[C@@H]1CN([C@@H](C)CO)C(=O)c2cc(NC(=O)c3ccccc3)ccc2O[C@@H](C)CCCCO[C@H]1CN(C)Cc1ccccc1 | inactive: -3.42%
37 | COc1cc(C2(c3ccc(O)c(OC)c3)C(=O)N(C)c3ccc(C)cc32)ccc1O | inconclusive: 25.1%
38 | C/C(=N\NC(=O)c1ccc2ccccc2c1)c1cccs1 | inconclusive: 27.5%
39 | COC(=O)c1cc2ccsc2n1Cc1ccccc1F | active: 113%
40 | Cc1noc(C)c1S(=O)(=O)Nc1ccc2c(c1)C(=O)N([C@@H](C)CO)C[C@@H](C)[C@H](CN(C)Cc1ccc(Oc3ccccc3)cc1)O2 | inactive: -2.4%
41 | C[C@@H]1CN([C@@H](C)CO)C(=O)Cc2cc(NC(=O)Cc3ccccc3)ccc2O[C@@H]1CN(C)C | inactive: 3.87%
42 | C[C@@H]1CCCCO[C@@H](CN(C)S(=O)(=O)c2ccccc2)[C@@H](C)CN([C@H](C)CO)C(=O)c2cc(NS(=O)(=O)c3ccc(F)cc3)ccc2O1 | inactive: 1.34% and inactive: 9.55%
43 | CCN(CC)c1ccc(C2Nc3cccc4cccc(c34)N2)cc1 | inconclusive: 34.8%
44 | CC(C)c1cn(CC[C@@H]2CC[C@H](NC(=O)Nc3cc(Cl)cc(Cl)c3)[C@@H](CO)O2)nn1 | inconclusive: 30.4%

Row | Structure (SMILES) | CPE inhibition
45 | C[C@H](CO)N1C[C@H](C)[C@H](CN(C)Cc2ccccc2)Oc2cc(C#Cc3ccccn3)ccc2S1(=O)=O | inconclusive: 26.7%
46 | Cc1c(C)c2ccc(OC(C)C(=O)N3CC[C@@]4(O)CCCC[C@H]4C3)c(C)c2oc1=O (stereo partly specified) | inconclusive: 51.7%
47 | CN(C)c1ccc(C(=O)N2CCC2(C)C(=O)O)cc1 (stereo unspecified) | inconclusive: 28.5%
48 | C[C@H]1CN([C@@H](C)CO)C(=O)c2cccc(NC(=O)c3cnccn3)c2O[C@H]1CN(C)C(=O)Nc1ccccc1 | active: 28.3%
49 | O=C(c1cccc(F)c1)N1CCCCN2[C@@H](CO)[C@H](c3ccc(/C=C/c4ccccc4)cc3)[C@@H]2C1 | inactive: -2.81%
50 | COc1ccc(S(=O)(=O)Nc2cccc3c2O[C@H](CN(C)C(=O)Nc2ccccc2)[C@H](C)CN([C@H](C)CO)C3=O)cc1 | inconclusive: 28.7%
51 | COCC(=O)N1[C@@H](C#N)[C@@H](c2ccccc2C2=CCCCC2)[C@@H]1CO | inconclusive: 51.3%
52 | O=C(NCc1ccccc1F)[C@H]1[C@H](CO)[C@H]2Cn3c(cccc3=O)[C@H]2N1C(=O)CC1CC1 | inconclusive: 61.4%
53 | COc1cc(OC)cc(-c2nnc(NC(=O)c3ccc4c(c3)OCCO4)o2)c1 | inconclusive: 23.7%
54 | CO[C@@H]1CN(C)C(=O)c2cc(NS(C)(=O)=O)ccc2OC[C@H](C)N(CC2CC2)C[C@H]1C | inconclusive: 47.6%
55 | CCc1ccc(CNC(=O)C2CCN(S(=O)(=O)N3CCC4(CC3)OCCO4)CC2)cc1 | inconclusive: 20.6%
56 | COc1ccc2[nH]c3c(c2c1)CCN1C(=O)C(CC(=O)NCc2cccc(C(F)(F)F)c2)C[C@H](C(=O)N2CCOCC2)[C@@]31C (stereo partly specified) | inconclusive: 56%
57 | COc1cccc(-c2nc(C(N)=O)c3[nH]c(=O)n(-c4cccc(Cl)c4)c3n2)c1OC | inactive: -1.69%
58 | CCCN1CCN(C(=O)CCn2c(=O)c3cccn3c3cccnc32)CC1 | inconclusive: 21.9%
59 | C[C@H]1CN([C@@H](C)CO)C(=O)CCCn2nncc2CO[C@H]1CN(C)S(=O)(=O)c1cccs1 | inconclusive: 30.7%
60 | CNC[C@H]1OCCCC[C@H](C)Oc2ccc(NC(=O)Nc3ccc(OC)cc3)cc2C(=O)N([C@H](C)CO)C[C@@H]1C | inconclusive: 26.7%
61 | COc1ccc(CN(C)C(=O)/C=C/[C@H]2O[C@@H](n3cc(C)c(=O)[nH]c3=O)C[C@@H]2O)cc1OC | inconclusive: 21.5%
62 | COc1ccc(CN(C)C[C@@H]2Oc3ccc(NC(=O)Cc4cn(C)c5ccccc45)cc3C(=O)N([C@H](C)CO)C[C@H]2C)cc1 | inconclusive: 20.4%
63 | COc1ccc(NC(=O)N(C)C[C@H]2Oc3ccc(NC(=O)Nc4ccc(F)cc4)cc3C(=O)N([C@H](C)CO)C[C@H]2C)cc1 | inactive: -11.6%
64 | CS(=O)(=O)N(CC(=O)N1CCCC1)c1cccc(F)c1 | inactive: -1.15%
65 | COc1ccc(S(=O)(=O)N[C@H]2CC[C@@H](CCNC(=O)CN3CCOCC3)O[C@H]2CO)cc1 | active: 94%
66 | CCNC(=O)CNC(=O)c1nn(Cc2ccccc2)c(=O)c2ccccc12 | inactive: -5.73%

Nothing new here: 3 of the compounds above.
Row | Structure (SMILES) | CPE inhibition
54 | CO[C@@H]1CN(C)C(=O)c2cc(NS(C)(=O)=O)ccc2OC[C@H](C)N(CC2CC2)C[C@H]1C | inconclusive: 47.6%
55 | CCc1ccc(CNC(=O)C2CCN(S(=O)(=O)N3CCC4(CC3)OCCO4)CC2)cc1 | inconclusive: 20.6%
56 | COc1ccc2[nH]c3c(c2c1)CCN1C(=O)C(CC(=O)NCc2cccc(C(F)(F)F)c2)C[C@H](C(=O)N2CCOCC2)[C@@]31C (stereo partly specified) | inconclusive: 56%
